Assay results taken from US20130336980A1 (Janssen / Centocor, published 2013).
Positions count from the first letter of the chain named. Results are given in words; binding and its absence hold for the method and conditions named. Some entries that bind do so weakly or less than the wild type.

By UniProt entry, the sequences of proteins in these tests, tags left out. Where a name states a change or a piece, a line headed by the entry shows the natural chain unless it says otherwise.
UniProt Q01638: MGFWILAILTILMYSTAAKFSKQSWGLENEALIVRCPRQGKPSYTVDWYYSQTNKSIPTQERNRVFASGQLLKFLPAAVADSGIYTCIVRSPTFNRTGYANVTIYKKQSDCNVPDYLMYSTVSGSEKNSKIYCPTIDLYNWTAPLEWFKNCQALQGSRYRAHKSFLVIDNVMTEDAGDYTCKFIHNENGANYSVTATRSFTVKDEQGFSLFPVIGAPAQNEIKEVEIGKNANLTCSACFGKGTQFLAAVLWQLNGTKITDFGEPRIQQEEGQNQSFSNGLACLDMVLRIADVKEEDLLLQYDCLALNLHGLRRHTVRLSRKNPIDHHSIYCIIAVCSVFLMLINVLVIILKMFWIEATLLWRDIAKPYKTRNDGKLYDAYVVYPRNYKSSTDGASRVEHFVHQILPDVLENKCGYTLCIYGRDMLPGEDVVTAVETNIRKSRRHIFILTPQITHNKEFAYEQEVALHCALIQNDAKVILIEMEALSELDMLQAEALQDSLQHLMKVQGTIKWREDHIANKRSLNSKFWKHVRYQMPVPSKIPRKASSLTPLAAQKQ

B1: STLM213 (antibody, V domains shown)
VH: EVQLLESGGGLVQPGGSLRLSCAASGFTFSFYDMIWVRQAPGKGLEWVSTIRGEGGDTNYADSVKGRFTISRDNSKNTLYLQMNSLRAEDTAVYYCARDPWSTEGSFFVLDYWGQGTLVTVSS
VL: EIVLTQSPATLSLSPGERATLSCRASQSVDDDLAWYQQKPGQAPRLLIYDASNRATGIPARFSGSGSGTDFTLTISSLEPEDFAVYYCQQYIDAPLTFGQGTKVEIK
B2: STLM215 (antibody, V domains shown)
VH: B1 VH with F31S, I35F, T50A, R52A, D57R, N59Y
VL: B1 VL with D93G, L96I
B3: STLM210 (antibody, V domains shown)
VH: B1 VH with F31D, Y32D, D33A, T50Y, R52G, E54N, D57T, N59Y
VL: EIVLTQSPATLSLSPGERATLSCRASQSVDDDLAWYQQKPGQAPRLLIYDASNRATGIPARFSGSGSGTDFTLTISSLEPEDFAVYYCQQYNDAITFGQGTKVEIK
B4: STLM221 (antibody, V domains shown)
VH: B1 VH with F31I, I35F, T50Y
VL: B1 VL with D93G, L96I
B5: STLM124 (antibody, V domains shown)
VH: B1 VH with F31I, R52K, D57G, N59Y
VL: B1 VL with D93T
B6: STLM216 (antibody, V domains shown)
VH: B1 VH with F31S, I35F, T50D, R52K, D57A
VL: B1 VL with D93G, L96I
B7: STLM107 (antibody, V domains shown)
VH: B1 VH with F31D, D33A, I35F, T50A, R52E, D57E
VL: B1 VL with D93G, L96I
B8: STLM217 (antibody, V domains shown)
VH: B1 VH with F31V, I35F, T50D, R52K, D57E, N59S
VL: B1 VL with D93G, L96I
B9: STLM108 (antibody, V domains shown)
VH: B1 VH with F31I, R52K, D57G, N59Y
VL: B1 VL with D93G, L96I
B10: STLM211 (antibody, V domains shown)
VH: B1 VH with F31G, D33A, T50Y, R52E, D57E, N59Y
VL: B3 VL
B11: STLM212 (antibody, V domains shown)
VH: B1 VH with F31V, D57G, N59Y
VL: B3 VL
B12: STLM209 (antibody, V domains shown)
VH: B1 VH with F31I, D57G, N59S
VL: B1 VL with D93T
B13: STLM207 (antibody, V domains shown)
VH: B1 VH with F31S, D57T, N59A
VL: B1 VL with D93T
B14: STLM103 (antibody, V domains shown)
VH: B1 VH with I35F, T50S, D57R, N59D
VL: B1 VL with D93G, L96I
B15: STLM222 (antibody, V domains shown)
VH: B1 VH with F31I, D33S, I35F, T50D, R52G, D57G, N59S
VL: B1 VL with D93G, L96I
B16: STLM219 (antibody, V domains shown)
VH: B1 VH with F31G, I35F, T50D, R52G, D57S
VL: B1 VL with D93G, L96I
B17: STLM220 (antibody, V domains shown)
VH: B1 VH with I35F, T50D, D57G, N59A
VL: B1 VL with D93G, L96I
B18: STLM214 (antibody, V domains shown)
VH: B1 VH with F31S, I35F, T50D, R52K, D57R, N59A
VL: B1 VL
B19: STLM218 (antibody, V domains shown)
VH: B1 VH with F31V, Y32D, D33S, I35F, T50S, R52E, E54N, D57A, N59Y
VL: B1 VL with D93G, L96I
B20: STLM206 (antibody, V domains shown)
VH: B1 VH with F31I, D57S, N59Y
VL: B1 VL with D93T
notes: IgG; VH3-23 / Vk-L6 frameworks

What follows are binders tested against human ST2L extracellular domain with C-terminal His6 tag (human) (UniProt Q01638) (assay: binding to human/mouse chimeras).

binding	Binder
binds	B1
binds	B2
binds	B3
binds	B4
binds	B5
binds	B6
binds	B7
binds	B8
binds	B9
binds	B10
binds	B11
binds	B12
binds	B13
binds	B14
binds	B15
binds	B16
binds	B17
binds	B18
binds	B19

Binder	binding
B20	binds

These binders were tested against human ST2L extracellular domain with C-terminal His6 tag (human) (UniProt Q01638) (assay: as described for the competition assays).

binding	Binder
binds	B1

Each binder was assayed against human ST2L extracellular domain with C-terminal His6 tag (human) (UniProt Q01638) (assay: MSD electrochemiluminescence competition assay on plate-coated ST2L-ECD; unlabeled antibody titrated against 10 nM sulfo-tag labeled C2494).

binding	Binder
binds	B1
